Measured values reported in publication PMC11146434.

The chains behind the UniProt entries cited, without tags or fusion partners. Residues count along the entry.
UniProt Q13148, 1-269: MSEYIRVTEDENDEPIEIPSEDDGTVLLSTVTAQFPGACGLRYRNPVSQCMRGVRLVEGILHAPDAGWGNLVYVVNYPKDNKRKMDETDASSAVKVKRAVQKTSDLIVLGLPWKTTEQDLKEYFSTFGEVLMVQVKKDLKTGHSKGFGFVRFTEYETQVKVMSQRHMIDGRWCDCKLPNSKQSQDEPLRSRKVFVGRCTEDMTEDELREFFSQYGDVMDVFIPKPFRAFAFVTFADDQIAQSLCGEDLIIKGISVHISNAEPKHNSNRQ

Biological target: His-TDP-43 1-269 (human) (UniProt Q13148)
Assay: SPR competition
Settings: 10 mM Tris pH 8.0, 150 mM NaCl, 2 mM MgCl2, 0.05% Tween-20, 1 uM BSA, 30 min pre-incubation at room temperature, SPR at 22 C (stated for the protein-protein SPR), recombinant protein, residues 1-269, protein details: N-terminal 6xHis (pQE30), label: 3' biotin

Sequence: GUGUGUGAAUGAAUAAA [3'-biotinylated RNA oligo]
- binding signal (% of signal without NF242) (100 nM TDP-43 1-269 pre-incubated with 1 uM His-MBP-RGNEF 1-275 (NF242), ~10% reduction): 90
- binding signal (% of signal without NF242) (100 nM TDP-43 1-269 pre-incubated with 10 uM His-MBP-RGNEF 1-275 (NF242), ~50% reduction): 50

The exact form of at least one protein or probe is not confirmed. Whether high values mean tight binding is not given here for every scale.
